# Measurements reported in PubChem BioAssay AID504784 (Drosophila RNAi Screening Center, 2011).
# Test: 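Genome-wide knock-down for genes giving too much or too little stored lipid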 (primary screen)
# Cell system: Drosophila Kc167 embryonic cells
# Reagent: long dsRNA against Drosophila genes, about 250 ng dsRNA per well
# Timing: 4 days
# Challenge: cells fed 400 µM oleic acid bound to BSA
# Measurement: 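Microscope images give a droplet-to-nucleus area ratio, taken as log and converted to a screen-wide B-score; higher values mean greater lipid storage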
# Scale: droplet/nuclear area B-score: higher = more stored lipid (overstorage)
# The deposit covers about 17,000 reagents; this is a random part of those with a known target gene and a result. 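Each column is one replicate's B-score; the combined score over replicates was not deposited, so single values may mislead.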 A plus sign joins genes that one reagent is predicted to hit. Not all columns of the deposit are shown.
The opening 4 entries, ahead of the listing:
gene,dsRNA,"droplet/nuclear area B-score, replicate 1","droplet/nuclear area B-score, replicate 2"
CG6051,DRSC15956,-0.00854,
CG11373,DRSC12170,0.177,0.33
CG9636,DRSC16529,-1.88,1.69
18w (18 wheeler),DRSC05029,-0.656,0.18

The list itself, repeating the preview:
gene,dsRNA,"droplet/nuclear area B-score, replicate 1","droplet/nuclear area B-score, replicate 2"
CG6051,DRSC15956,-0.00854,
CG11373,DRSC12170,0.177,0.33
CG9636,DRSC16529,-1.88,1.69
18w (18 wheeler),DRSC05029,-0.656,0.18
CG32260,DRSC08084,-1.3,0.00954
ppk31 (pickpocket 31),DRSC13811,-0.163,-1.91
Gr68a (Gustatory receptor 68a),DRSC10803,0.989,0.0936
SerT (Serotonin transporter),DRSC04655,1.14,0.161
Naa30A (N(alpha)-acetyltransferase 30 A),DRSC18583,6.6,
Naa30A (N(alpha)-acetyltransferase 30 A),DRSC23214,-0.0138,0.789
CG32640 + CG32641,DRSC22885,0.744,-1.25
Mp20 (Muscle protein 20),DRSC07474,0.837,1.64
CG12290,DRSC14497,-0.0662,
CG15255,DRSC01869,-0.00118,3.52
Idh3g,DRSC15699,-0.704,0.28
sun (stunted),DRSC20140,0.0856,1.56
Atg4a (Autophagy-related 4a),DRSC00656,-1.35,-0.82
a5 (antennal protein 5),DRSC00798,1.31,1.89
Uba5 (Ubiquitin-like activating enzyme 5),DRSC19775,-1.46,0.0612
CG42671,DRSC09093,-1.06,-2.22
CG42671,DRSC10321,-0.954,-1.69
CG13872,DRSC06431,0.497,0.463
MESK2 (Misexpression suppressor of KSR 2),DRSC04258,0.954,0.862
CG9903,DRSC20213,0.643,-1.01
hpRNA:CR32207 (hairpin RNA:CR32207),DRSC09616,1.81,-0.235
CG30054,DRSC05354,0.266,-1.09
CG10341,DRSC02040,-0.382,-0.0259
ZnT63C (Zinc transporter 63C),DRSC08032,2.66,-1.15
ZnT63C (Zinc transporter 63C),DRSC08033,1.5,1.41
ZnT63C (Zinc transporter 63C),DRSC08519,0.532,-0.582
ZnT63C (Zinc transporter 63C),DRSC21989,8.33,
CG9662,DRSC00723,-0.0194,0.364
P5CS (Delta[1]-pyrroline-5-carboxylate synthase),DRSC11831,-0.615,-0.193
P5CS (Delta[1]-pyrroline-5-carboxylate synthase),DRSC11832,-1.48,-1.56
CG3347,DRSC00597,-0.796,0.411
CR16735 (pseudo),DRSC15144,-0.641,-0.862
CG7295,DRSC00699,1.22,-0.00689
CG5828,DRSC02900,0.0985,0.859
vir (virilizer),DRSC04377,-0.574,-1.7
CG4927,DRSC06903,0.686,-0.911
CG17134,DRSC02583,1.43,-1.48
CG13046,DRSC09927,-0.917,-0.473
Dlg5 (Discs large 5),DRSC02964,-2.03,-2.54
Taf2 (TBP-associated factor 2),DRSC11298,0.301,
CG31759,DRSC01230,0.396,0.606
CG8664,DRSC20116,-1.28,0.00715
mRpS2 (mitochondrial ribosomal protein S2),DRSC00550,1.19,1.12
Rnf146 (Ring finger protein 146),DRSC11045,2.34,-0.138
l(3)psg2 (lethal (3) persistent salivary gland 2),DRSC10484,-0.523,-1.78
CG3337,DRSC15478,1.3,0.000542
Nlp (Nucleoplasmin),DRSC16759,-0.231,
RunxA (Runt related A),DRSC20498,-0.525,1.29
RunxA (Runt related A),DRSC20524,,-0.0778
RunxA (Runt related A),DRSC21915,-0.689,-0.632
CG6044,DRSC04522,0.666,-0.875
Rcd-1 (Required for cell differentiation 1),DRSC19569,-0.0329,-0.0608
Hsc70-3 (Heat shock protein 70 cognate 3),DRSC20253,3.32,4.58
CG15578,DRSC18066,-0.251,-0.932
CG3746,DRSC04412,-1.93,0.282
Cyp12c1 (Cytochrome P450 12c1),DRSC11125,-0.271,0.528
CG13358,DRSC18534,0.536,1.61
Sse (Separase),DRSC09746,0.68,-1.96
Grl58a (Gustatory receptor-like 58a),DRSC04145,-0.847,-0.0402
CG30183,DRSC04450,-0.00966,1.72
CG30183,DRSC04472,-0.458,-1.04
Rbfox1 (RNA-binding Fox protein 1),DRSC09034,0.595,0.0554
Rbfox1 (RNA-binding Fox protein 1),DRSC10157,-3.44,-4.01
Rbfox1 (RNA-binding Fox protein 1),DRSC10320,-0.448,2.08
Rbfox1 (RNA-binding Fox protein 1),DRSC21378,0.0276,-0.492
Rbfox1 (RNA-binding Fox protein 1),DRSC22992,0.042,-0.0217
HSPC300 (Haematopoietic stem/progenitor cell protein 300),DRSC22880,2.59,1.49
CG13482,DRSC10024,1.87,-0.00588
CG17746,DRSC08521,2.59,0.0684
CG17746,DRSC23333,-0.0229,1.78
osi (orsai),DRSC02931,-1.12,0.00743
CG30049,DRSC21345,0.673,0.411
CG14609,DRSC12553,1.51,0.101
MED30 (Mediator complex subunit 30),DRSC08516,3.27,
MED30 (Mediator complex subunit 30),DRSC23135,-0.523,1.68
GlcAT-P (Glucuronyltransferase P),DRSC10603,-1.37,-0.922
GlcAT-P (Glucuronyltransferase P),DRSC10604,-0.386,1.58
CBP (sarcoplasmic calcium-binding protein),DRSC17746,-0.00443,0.611
CG42284,DRSC22094,0.0767,-0.0395
CG42284,DRSC22342,4.24,0.116
